{"source": "paper PMC5415599", "about": "(Frontiers in Microbiology, 2017)", "assay": "Fmoc solid-phase peptide synthesis; Fmoc-Rink amide MBHA resin", "settings": "whole synthesis, analytical HPLC", "data": [{"substance": "INWKKWWQVFYTVV-NH2", "values": [{"measurement": "final HPLC purity", "value": 100, "unit": "%"}]}]}
